Results on one compound are retold here after publication PMC10016340 (Chemical Science, 2023).

Assay [1] has as its target αSOs-Alexa488 binding to DOPG liposomes (Homo sapiens, UniProt P37840). Nature of the assay: FIDA αSO-vesicle binding inhibition assay. The settings on record: 5 μM compound, 50 μM DOPG; αSO-vesicle complex without compound ∼60 nm.
A further assay has as its target αSOs-Alexa488 (Homo sapiens, UniProt P37840). Put plainly: FIDA effect of lead compounds on free αSOs. The format is binding. Particulars: 150 nM αSO, 5 μM compound; 13% without compound.
In a further assay the target is αSO (Homo sapiens, UniProt P37840). The format is binding. The settings on record: 2 mM compound, 1 μg mL^−1 αSOs.

Take `CC(C)(C)CC(C)(C)c1ccc(OCCOCC[N+](C)(C)Cc2ccccc2)cc1` [A3, Benzethonium]: the “Apparent size (Rh) of αSOs-Alexa488 in the presence of DOPG liposomes and compound” value in assay [1] was ~10 nm. Further, the “Percentage of α-syn monomers in αSO sample” value on αSOs-Alexa488 is on record as 18%. The “αSO binding signal in sandwich ELISA vs positive control” value at αSO was “to a smaller extent”.
